Experiment: in vitro
Conditions: mouse, microsomes, pH 7.4

CCCNCC(O)COc1ccccc1C(=O)CCc1ccccc1 (stereo not shown) [propafenone]
microsomal CLint: 202 µL/min/mg

— article PMC9729598 (Bioorganic Chemistry, 2022)
